Results published in PubChem BioAssay AID1688 (National Center for Advancing Translational Sciences (NCATS), 2009).
Screen size: about 220,000 compounds; about 2,400 (1.1%) were called active. This list was built around the results that the source calls inconclusive (neither active nor inactive); the mix of calls is not that of the screen. Calls come from the whole dose curve; as a rule, active = well fitted inhibition curve with a large enough effect; inconclusive = small, poorly fitted or top-dose-only effect, or effect the other way; inactive = no such curve, though single readings can be large or run the other way. Where the call is inconclusive, the potency comes from a doubtful curve fit.

assay: qHTS Multiplex Assay to Identify Dual Action Probes in a Cell Model of Huntington: Aggregate Formation (GFP); conditions: PC12 HttQ103-GFP aggregates, Acumen cytometry, 40 h; activity change, negative = inhibition: at 46.1 µM (top of the series) unless noted; note: nearly all actives have a fitted effect of over 60% in size
Summary of the method: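 PC12 cells with ecdysone-inducible HTT exon1 Q103-GFP, induced by 100 nM tebufenozide, given compounds in a concentration series. GFP aggregates (1–25 um, 6 SD above background) counted in lysates by laser-scanning cytometry, 488 nm excitation.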
% is set by controls: 0 for no effect and ±100 for the full control effect; potency is the fitted concentration of half-maximal effect.

Compound	Potency	activity change, negative = inhibition
CC1=CC(c2ccccc2)n2nc(NS(=O)(=O)c3ccc(C)cc3)nc2N1 (stereo not given)	inconclusive: 2.51 µM [activator, single point]	
CN(C)c1ccc(C(=O)c2ccccc2)cc1	inactive	
CC(C)N(CC#CCC(O)(c1ccccc1)C1CCCC1)CCO (stereo not given)		inactive: 0.554% [at 9.22 µM]
NC(=O)C1(N2CCCCC2)CCN(CC(=O)Nc2cc(Cl)ccc2Cl)CC1	inactive	
O=C(NCCc1cccs1)C1CC(c2ccc([N+](=O)[O-])cc2)=NO1 (stereo not given)	inconclusive: 11.2 µM [inhibitor, single point]	
Cc1nn(Cc2c(Cl)cccc2Cl)c(Cl)c1/C=N/NC(=O)c1cccnc1	inactive	
CN(c1cccc(NC(=O)c2ccc(Cl)c(S(=O)(=O)Nc3ccccc3)c2)c1)S(C)(=O)=O	inconclusive: 31.6 µM [inhibitor, single point]	
Cc1cc(O)ccc1C1(c2ccc(O)cc2C)OC(=O)c2ccccc21	inactive	
Cc1ccc(CNc2ncnc3cc(Cl)ccc23)o1	active: 12.6 µM	
N#CC(/C(=N/S(=O)(=O)c1cccs1)c1ccccc1)c1nc2ccccc2[nH]1 (stereo not given)	inconclusive: 12.6 µM [inhibitor, partial curve]	
COc1cc(C(=O)NCCC(C)C)ccc1OCc1ccc(Cl)cc1Cl	inconclusive: 10 µM [inhibitor, partial curve]	
O=C(Nc1nc2ccccc2s1)C1CCN(S(=O)(=O)c2cc([N+](=O)[O-])ccc2Cl)CC1	inconclusive: 1.26 µM [activator, single point]	
O=C(NCCc1ccccn1)C(F)(F)C(F)(F)C(F)(F)C(F)(F)C(F)(F)C(F)(F)C(F)(F)C(F)F	inconclusive: 14.1 µM [inhibitor, single point]	
CCn1c(SCc2ccc(C)cc2)nnc1-c1nn(-c2ccccc2)ccc1=O	inactive	
CCOC(=O)c1c(C)[nH]c(C)c1C(=O)COC(=O)[C@@H](NC(=O)c1ccccc1OCC)C(C)C	inconclusive: 5.62 µM [activator, single point]	
Cc1ccc(-n2c(-c3ccccc3)c[n+]3c2CCc2ccccc2-3)c(C)c1	active: 3.16 µM	
COCCNc1nc(-c2cc(C)c(C)cc2C)cs1	inconclusive: 12.6 µM [inhibitor, single point]	
O=C(CSc1ccc(F)cc1)NC1CCCCC1	inactive	
CC(C)c1nc(SCC(=O)N2CCCC2)c2ccccc2n1	inconclusive: 10 µM [activator, partial curve]	
Clc1ccc(C=NC23CN4CN(CN(C4)C2)C3)cc1	inconclusive: 11.2 µM [activator, single point]	

Some of the entries so far, as labelled records.
N#CC(/C(=N/S(=O)(=O)c1cccs1)c1ccccc1)c1nc2ccccc2[nH]1 (stereo not given)
  Potency: inconclusive: 12.6 µM [inhibitor, partial curve]
COc1cc(C(=O)NCCC(C)C)ccc1OCc1ccc(Cl)cc1Cl
  Potency: inconclusive: 10 µM [inhibitor, partial curve]
